# Laboratory results taken from PubChem BioAssay AID540256 (National Center for Advancing Translational Sciences (NCATS), 2011).
# Among all 300,000 compounds or so, about 3,700 (1.2%) were called active. Inconclusive results, whose numbers are uncertain, are shown with a selection of clear calls. Calls come from the whole dose curve; tested in HEK293 cells. A potency beside an inconclusive call is a rough fit, not a confirmed value.
# Test: qHTS for Inhibitors of binding or entry into cells for Lassa Virus; note: nearly all actives have a fitted effect of over 50% in size
# Conditions: Lassa virus pseudotype entry inhibition, cell reporter; activity change, negative = inhibition: at 37.9 µM (top of the series) unless noted
# % is set by controls: 0 for no effect and ±100 for the full control effect; potency is the fitted concentration of half-maximal effect.
Compound,"activity change, negative = inhibition",Potency
O=C(N/N=C\c1coc2ccccc2c1=O)c1ccco1,inactive: 9.18%,
Cc1ccc(C)c(S(=O)(=O)N2CCN(C(=O)CCCc3c[nH]c4ccccc34)CC2)c1,,"inconclusive: 10 µM [inhibitor, partial curve, poor fit]"
O=C(NC(NC(=S)Nc1c(Cl)cccc1Cl)C(Cl)(Cl)Cl)OCc1ccccc1 (stereo unspecified),,"inconclusive: 11.2 µM [inhibitor, partial curve]"
COc1ccc(-n2nc3c(c2NC(=O)C2CC(=O)N(c4ccccc4)C2)CS(=O)(=O)C3)cc1 (stereo unspecified),inactive: 19.9%,
c1ccc2c(N3CCCCC3)nc(N3CCCC3)nc2c1,,"inconclusive: 8.2 µM [inhibitor, partial curve, poor fit]"
COc1ccc(C(CNC(=O)c2cccc(S(=O)(=O)Nc3ccc(C)cc3)c2)N2CCCCC2)cc1 (stereo unspecified),,"inconclusive: 35.5 µM [inhibitor, single point]"
O=S(=O)(Nc1ccc(N=Nc2ccc(O)c3ccccc23)cc1)c1ccccc1,,"inconclusive: 5.62 µM [inhibitor, partial curve]"
Cc1ccnc(NC(=O)CCC(=O)N(CC(=O)NC2CCCCC2)CC2CCCO2)c1 (stereo unspecified),,"inconclusive: 35.5 µM [activator, partial curve, poor fit]"
CC(=O)c1ccc(NC(=O)CCNS(=O)(=O)c2ccccc2F)cc1,,"inconclusive: 1.26 µM [inhibitor, partial curve, poor fit]"
CC(=O)Oc1ccc(OC(C)=O)c(SCCCCCCl)c1,,"inconclusive: 17.8 µM [inhibitor, single point]"
O=C(CCCOc1ccc(Cl)cc1Cl)N1CCC2(CC1)OCCO2,inactive: 13.7%,
COc1cc(/C=C(/C#N)c2ccc(F)cc2)ccc1Oc1ccc([N+](=O)[O-])cn1,,"inconclusive: 15.8 µM [inhibitor, single point]"
CCCCc1ccc(NC(=O)CSC2=NN3CCCC(=O)N=C3S2)cc1,,"inconclusive: 17.8 µM [inhibitor, partial curve, poor fit]"
O=c1[nH]cccc1-c1nc2ccccc2[nH]1,,"inconclusive: 7.08 µM [activator, partial curve, poor fit]"
O=C(CNC(=O)c1ccccc1Cl)c1ccccc1,,"inconclusive: 35.5 µM [inhibitor, partial curve, poor fit]"
COc1ccccc1N1CCN(C(CNC(=O)c2ccc3c(c2)OCO3)c2cccnc2)CC1 (stereo unspecified),inactive: 21.1%,
COc1ccc(C(CC(=O)c2ccccc2)S(=O)(=O)c2ccccc2)cc1 (stereo unspecified),,"inconclusive: 10 µM [activator, partial curve, poor fit]"
ClCCn1cnc2c(SCc3ccccc3)ncnc21,,"inconclusive: 1 µM [inhibitor, full curve, poor fit]"
CC(=O)[C@@]1(O)CCC2C3CC[C@H]4C[C@@H](O)CC[C@]4(C)C3CC[C@@]21C (stereo partly specified),inactive: 0% [at 46.1 µM],
CCC(C)Oc1cccc(C(=O)Nc2ccccc2N2CCOCC2)c1 (stereo unspecified),,"inconclusive: 14.6 µM [inhibitor, partial curve]"
O=C(NCC(=O)N1CCc2ccccc2C1)c1ccc(Cl)cc1Cl,inactive: 15.1% [at 46.1 µM],

# Entries shown so far that contain an NH in an aromatic ring:
Compound,"activity change, negative = inhibition",Potency
Cc1ccc(C)c(S(=O)(=O)N2CCN(C(=O)CCCc3c[nH]c4ccccc34)CC2)c1,,"inconclusive: 10 µM [inhibitor, partial curve, poor fit]"
O=c1[nH]cccc1-c1nc2ccccc2[nH]1,,"inconclusive: 7.08 µM [activator, partial curve, poor fit]"

# Next records.

Compound,"activity change, negative = inhibition",Potency
CCC1CCCCN1S(=O)(=O)c1ccc(NC(=O)c2cccnc2)cc1 (stereo unspecified),,"inconclusive: 14.1 µM [inhibitor, partial curve, poor fit]"
O=C(NCc1ccncc1)C(=O)N/N=C/c1ccccn1,,"inconclusive: 10 µM [inhibitor, partial curve, poor fit]"
COc1ccc(S(=O)(=O)N(C)C)cc1NC(=O)CCCSc1ccccc1,,"inconclusive: 11.2 µM [inhibitor, partial curve]"
CCOc1ccc(-c2cc(C)[n+](CCO)c(-c3ccc(OCC)cc3)c2)cc1,,"inconclusive: 11.2 µM [inhibitor, partial curve]"
Nc1c(-c2nc(-c3cccs3)no2)nnn1-c1cccc(Cl)c1,,"inconclusive: 0.501 µM [activator, full curve, poor fit]"
CCOC(=O)/C(=N/Nc1ccc(OC)cc1)Sc1nnc(CCc2ccccc2)n1-c1ccccc1,,"inconclusive: 10 µM [inhibitor, partial curve, poor fit]"
Cc1cc(C)cc(NC(=O)/C(C#N)=C/c2cn(CC(=O)NCc3ccco3)c3ccccc23)c1,,"inconclusive: 22.4 µM [inhibitor, partial curve, poor fit]"
CNC(=O)C(=O)NCC1OCCN1S(=O)(=O)c1ccc([N+](=O)[O-])cc1 (stereo unspecified),inactive: 2.77%,
CC(C)CC(NC(N)=O)C(=O)NCc1ccccc1Cl (stereo unspecified),inactive: -0.373% [at 46.1 µM],
Cc1ccc(S(=O)(=O)NN2C(=O)c3ccccc3NC2(C)C)cc1,,"inconclusive: 2.06 µM [inhibitor, partial curve, poor fit]"
COc1ccc(/C=C2\CCOC2=O)cc1,,"inconclusive: 35.5 µM [activator, single point]"
CCOc1cc(CNCCc2ccccc2)ccc1OCC(=O)NC(C)(C)C,,"inconclusive: 17.8 µM [inhibitor, partial curve, poor fit]"
O=[N+]([O-])c1ccc(N2CCOCC2)cc1SCc1ccco1,inactive: 2.36%,
CC(C)c1ccc(-c2c(C#N)c(N)nc(SCC(=O)N3CCCCCC3)c2C#N)cc1,inactive: -14%,
Cc1cc(N2CCCCC2)nc2ccc(NC(=O)/C=C/c3ccccc3Cl)cc12,inactive: -15.3% [at 46.1 µM],
Cc1c(NC(=O)/C(C#N)=C/c2c(Oc3ccccc3)nc3ccccn3c2=O)c(=O)n(-c2ccccc2)n1C,inactive: -15%,
O=C(NCc1ccc(Cl)cc1)C1CCCN(c2nc3ccccc3n3cccc23)C1 (stereo unspecified),,"inconclusive: 35.5 µM [inhibitor, single point]"
O=C(Cn1c2ncccc2c(=O)n1-c1ccccc1)Nc1ccc(F)c(F)c1,,"inconclusive: 15.8 µM [activator, single point]"
CCN(c1ccc(OC)cc1)S(=O)(=O)c1ccc2[nH]c(=O)ccc2c1,,"inconclusive: 3.55 µM [inhibitor, full curve, poor fit]"
CC1=C(C(=O)N2CCOCC2)C(c2cc(C)ccc2C)NC(=S)N1 (stereo unspecified),,"inconclusive: 2.82 µM [inhibitor, single point]"
